Experimental data: publication PMC6203701
Results are given in words; binding and its absence hold for the method and conditions named. Binding can be weak; no strength is given. Sequences can lack the tags named with a protein.

Each substance was assayed against T1, MBP-GW2 (maltose-binding protein fused with grain width 2) (rice (Oryza sativa L.)) (UniProt B9F4Q9) (assay: pull-down; 2 µg MBP-GW2 mixed with 2 µg GST fusion protein; 50 mM Tris-HCl pH 7.5, 100 mM NaCl, 1% Triton X-100, 0.2% glycerol, 0.5 mM 2-mercaptoethanol; 25 °C, 2 h; captured on amylose resin, washed five times; GST fusions detected by anti-GST immunoblot; both purified).
T1 sequence: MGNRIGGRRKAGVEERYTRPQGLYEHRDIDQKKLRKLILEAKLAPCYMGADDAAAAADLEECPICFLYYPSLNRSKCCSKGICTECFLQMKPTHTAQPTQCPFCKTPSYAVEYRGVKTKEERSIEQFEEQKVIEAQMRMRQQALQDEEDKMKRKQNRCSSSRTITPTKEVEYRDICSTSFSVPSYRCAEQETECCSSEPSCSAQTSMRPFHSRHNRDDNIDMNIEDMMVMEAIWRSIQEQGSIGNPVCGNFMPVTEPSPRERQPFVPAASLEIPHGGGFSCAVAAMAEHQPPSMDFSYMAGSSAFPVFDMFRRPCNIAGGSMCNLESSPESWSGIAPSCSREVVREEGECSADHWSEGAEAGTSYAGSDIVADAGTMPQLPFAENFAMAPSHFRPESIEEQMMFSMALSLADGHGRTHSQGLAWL
In the case of “GST-CHT14 (glutathione S-transferase fused with chitinase 14) (rice (Oryza sativa L.)) (enzyme)”, the binding is reported as “binds”.
“GST-GAPDH (glutathione S-transferase fused with glyceraldehyde 3-phosphate dehydrogenase) (rice (Oryza sativa L.)) (enzyme)” was tested, and the binding was “no binding (tested: 2 µg of MBP-GW2 with 2 µg of GST-GAPDH)”.
With “GST-PGK (glutathione S-transferase fused with phosphoglycerate kinase) (rice (Oryza sativa L.)) (enzyme)” the binding was “binds”.
